The test has as its target lumican (UniProt P51885). Nature of the test: ELISA; lumican coated on Maxisorp 96-well plates (18 h, 4°C), blocked with 1% BSA in PBST; increasing amounts of MC3T3-E1 cell lysate added for 2 h; bound integrin α2 or β1 detected with antibodies and HRP-linked antibody, read at 450 nm; BSA-coated wells as control; only the target purified.

Chains of the proteins cited; added tags and fusions are not shown. Lines headed by an entry give the natural chain unless they say otherwise; changes in a name come on top. Residues count along the entry.
UniProt P51885, residues 19-338: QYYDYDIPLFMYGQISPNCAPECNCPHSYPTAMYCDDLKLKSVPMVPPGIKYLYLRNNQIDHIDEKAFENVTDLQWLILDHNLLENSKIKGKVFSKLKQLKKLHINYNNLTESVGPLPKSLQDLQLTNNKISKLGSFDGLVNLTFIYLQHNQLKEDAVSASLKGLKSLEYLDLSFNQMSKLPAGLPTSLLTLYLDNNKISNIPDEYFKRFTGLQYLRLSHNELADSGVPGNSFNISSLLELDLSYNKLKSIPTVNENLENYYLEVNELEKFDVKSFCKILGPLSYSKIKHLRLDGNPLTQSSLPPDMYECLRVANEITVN
UniProt Q62469: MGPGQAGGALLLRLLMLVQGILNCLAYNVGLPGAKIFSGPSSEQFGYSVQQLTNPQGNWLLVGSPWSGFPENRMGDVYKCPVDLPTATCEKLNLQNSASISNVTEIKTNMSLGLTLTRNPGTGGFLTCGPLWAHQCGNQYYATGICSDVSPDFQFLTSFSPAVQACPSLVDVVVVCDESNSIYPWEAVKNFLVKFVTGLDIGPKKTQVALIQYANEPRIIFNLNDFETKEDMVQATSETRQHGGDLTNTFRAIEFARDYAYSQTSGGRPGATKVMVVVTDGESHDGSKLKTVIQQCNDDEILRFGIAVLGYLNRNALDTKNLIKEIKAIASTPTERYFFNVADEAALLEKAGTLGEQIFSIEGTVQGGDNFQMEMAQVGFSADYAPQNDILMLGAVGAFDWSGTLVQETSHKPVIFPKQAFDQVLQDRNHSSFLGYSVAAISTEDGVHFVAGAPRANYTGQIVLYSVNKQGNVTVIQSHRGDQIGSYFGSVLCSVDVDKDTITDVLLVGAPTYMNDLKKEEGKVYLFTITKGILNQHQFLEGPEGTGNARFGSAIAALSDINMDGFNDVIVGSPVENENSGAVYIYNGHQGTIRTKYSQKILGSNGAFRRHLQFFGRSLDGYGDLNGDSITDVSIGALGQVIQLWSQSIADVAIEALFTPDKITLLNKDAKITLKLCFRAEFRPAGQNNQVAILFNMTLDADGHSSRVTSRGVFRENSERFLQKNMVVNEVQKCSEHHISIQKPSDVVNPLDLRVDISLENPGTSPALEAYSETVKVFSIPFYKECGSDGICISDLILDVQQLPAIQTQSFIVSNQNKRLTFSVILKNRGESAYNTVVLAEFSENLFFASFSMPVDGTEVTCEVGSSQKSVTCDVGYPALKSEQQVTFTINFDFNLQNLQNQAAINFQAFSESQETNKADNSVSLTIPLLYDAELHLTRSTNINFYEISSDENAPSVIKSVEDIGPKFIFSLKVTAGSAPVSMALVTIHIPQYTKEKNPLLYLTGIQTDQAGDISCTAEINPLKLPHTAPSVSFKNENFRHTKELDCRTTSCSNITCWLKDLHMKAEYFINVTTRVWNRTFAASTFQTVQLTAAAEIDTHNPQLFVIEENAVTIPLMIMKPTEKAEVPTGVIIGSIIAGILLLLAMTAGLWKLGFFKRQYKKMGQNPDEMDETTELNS

Results are given in words; binding and its absence hold for the method and conditions named. Some results given as binding are weak or reduced against the parent protein; the word gives no strength.

Consider “integrin α2β1 (from UniProt Q62469 27-1178; P09055-1 21-798) (receptor)”, for which the binding entry is reported as “binds”.
